For two molecules, binding results are on record in doi:10.1101/2024.10.17.618965.

Test in all cases: co-IP
Test [1] deals with T1, Tight junction protein ZO-2, endogenous in MDCK cells (dog (endogenous in MDCK)) (UniProt Q95168).
T1 sequence: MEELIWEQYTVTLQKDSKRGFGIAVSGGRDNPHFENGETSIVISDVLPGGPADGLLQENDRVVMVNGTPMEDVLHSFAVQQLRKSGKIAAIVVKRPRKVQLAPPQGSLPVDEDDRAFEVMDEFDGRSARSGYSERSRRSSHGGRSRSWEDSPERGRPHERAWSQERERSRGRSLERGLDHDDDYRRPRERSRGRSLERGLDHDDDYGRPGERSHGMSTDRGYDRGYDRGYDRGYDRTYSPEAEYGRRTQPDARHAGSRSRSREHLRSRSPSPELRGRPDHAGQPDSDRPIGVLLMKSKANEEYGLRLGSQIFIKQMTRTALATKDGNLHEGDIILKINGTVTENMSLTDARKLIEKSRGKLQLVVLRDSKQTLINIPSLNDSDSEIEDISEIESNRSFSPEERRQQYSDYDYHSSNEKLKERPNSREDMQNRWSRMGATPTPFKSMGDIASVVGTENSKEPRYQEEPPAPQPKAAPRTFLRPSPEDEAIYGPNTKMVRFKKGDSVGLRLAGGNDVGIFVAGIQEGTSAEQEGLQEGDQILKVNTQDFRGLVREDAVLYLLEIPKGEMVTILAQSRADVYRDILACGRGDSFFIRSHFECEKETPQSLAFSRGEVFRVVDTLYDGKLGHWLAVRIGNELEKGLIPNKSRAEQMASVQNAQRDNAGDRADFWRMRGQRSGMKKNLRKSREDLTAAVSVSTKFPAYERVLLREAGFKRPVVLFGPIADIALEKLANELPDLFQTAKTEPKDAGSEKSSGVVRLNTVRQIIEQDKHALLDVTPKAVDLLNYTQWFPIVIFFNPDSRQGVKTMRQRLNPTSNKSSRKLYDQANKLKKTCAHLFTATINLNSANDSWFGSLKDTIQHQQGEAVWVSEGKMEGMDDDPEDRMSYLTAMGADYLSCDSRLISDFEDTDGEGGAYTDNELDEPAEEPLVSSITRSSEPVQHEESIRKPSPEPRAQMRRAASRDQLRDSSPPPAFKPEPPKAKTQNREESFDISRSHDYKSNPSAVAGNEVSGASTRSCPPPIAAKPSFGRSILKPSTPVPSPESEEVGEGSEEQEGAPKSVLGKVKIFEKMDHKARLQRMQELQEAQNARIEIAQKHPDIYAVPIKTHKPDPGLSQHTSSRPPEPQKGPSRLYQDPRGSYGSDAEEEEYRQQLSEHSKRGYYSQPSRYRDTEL

Test [2] concerns the target T1, Tight junction protein ZO-2, endogenous in MDCK cells (dog (endogenous in MDCK)). This is another data set of the same source.
Test [3] concerns the target T2, FLAG-LATS1 (human LATS1 in pXJ40) (human) (UniProt O95835).
T2 sequence: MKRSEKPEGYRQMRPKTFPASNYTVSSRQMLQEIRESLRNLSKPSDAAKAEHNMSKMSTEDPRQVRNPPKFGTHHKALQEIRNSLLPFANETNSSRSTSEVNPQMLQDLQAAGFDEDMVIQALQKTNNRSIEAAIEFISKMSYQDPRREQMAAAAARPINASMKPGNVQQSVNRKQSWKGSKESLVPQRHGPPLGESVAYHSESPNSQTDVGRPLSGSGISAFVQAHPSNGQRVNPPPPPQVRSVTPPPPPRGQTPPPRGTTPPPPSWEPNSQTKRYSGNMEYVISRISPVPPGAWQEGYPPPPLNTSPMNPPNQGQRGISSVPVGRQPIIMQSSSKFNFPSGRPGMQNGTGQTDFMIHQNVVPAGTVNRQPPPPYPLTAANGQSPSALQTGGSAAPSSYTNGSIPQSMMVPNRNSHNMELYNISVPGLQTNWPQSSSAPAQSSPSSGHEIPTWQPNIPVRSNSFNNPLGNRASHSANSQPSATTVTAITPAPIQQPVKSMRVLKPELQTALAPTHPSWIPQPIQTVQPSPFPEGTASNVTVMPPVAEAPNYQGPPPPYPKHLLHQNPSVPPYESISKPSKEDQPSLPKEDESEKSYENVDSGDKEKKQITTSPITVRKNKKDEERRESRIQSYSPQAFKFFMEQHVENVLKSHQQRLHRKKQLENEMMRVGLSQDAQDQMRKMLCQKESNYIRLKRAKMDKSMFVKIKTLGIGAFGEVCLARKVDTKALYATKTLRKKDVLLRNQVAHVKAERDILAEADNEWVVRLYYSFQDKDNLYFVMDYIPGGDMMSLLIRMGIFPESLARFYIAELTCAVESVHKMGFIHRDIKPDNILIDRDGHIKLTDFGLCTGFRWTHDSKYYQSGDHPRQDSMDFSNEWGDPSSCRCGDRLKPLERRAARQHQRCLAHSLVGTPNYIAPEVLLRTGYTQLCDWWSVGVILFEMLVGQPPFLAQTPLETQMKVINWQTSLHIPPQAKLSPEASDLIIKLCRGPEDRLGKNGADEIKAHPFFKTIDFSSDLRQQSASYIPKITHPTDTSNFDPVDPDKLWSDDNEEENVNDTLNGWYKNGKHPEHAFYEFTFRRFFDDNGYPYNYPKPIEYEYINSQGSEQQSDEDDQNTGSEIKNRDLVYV

Test [4] has as its target FLAG-YAP (human YAP1-2γ in pXJ40) (human) (UniProt P46937).

Where two headings read alike, the source gives them in different places. Results are given in words; binding and its absence hold for the method and conditions named. In cells and extracts the contact can be indirect. Some binding calls cover weakened binding; strength is not graded here. For some of these results: Sequences can lack the tags named with a protein.

In the case of “Yes-associated protein YAP, endogenous in MDCK cells (from UniProt A0A8C0NGY6 1-506)”, the binding entry in test [1] and in test [2] was “binds” in each case.

B1: full-length HA-ZO-2 (human ZO-2 in pXJ40) (protein, UniProt Q9UDY2 1-1190)
chain: MPVRGDRGFPPRRELSGWLRAPGMEELIWEQYTVTLQKDSKRGFGIAVSGGRDNPHFENGETSIVISDVLPGGPADGLLQENDRVVMVNGTPMEDVLHSFAVQQLRKSGKVAAIVVKRPRKVQVAALQASPPLDQDDRAFEVMDEFDGRSFRSGYSERSRLNSHGGRSRSWEDSPERGRPHERARSRERDLSRDRSRGRSLERGLDQDHARTRDRSRGRSLERGLDHDFGPSRDRDRDRSRGRSIDQDYERAYHRAYDPDYERAYSPEYRRGARHDARSRGPRSRSREHPHSRSPSPEPRGRPGPIGVLLMKSRANEEYGLRLGSQIFVKEMTRTGLATKDGNLHEGDIILKINGTVTENMSLTDARKLIEKSRGKLQLVVLRDSQQTLINIPSLNDSDSEIEDISEIESNRSFSPEERRHQYSDYDYHSSSEKLKERPSSREDTPSRLSRMGATPTPFKSTGDIAGTVVPETNKEPRYQEDPPAPQPKAAPRTFLRPSPEDEAIYGPNTKMVRFKKGDSVGLRLAGGNDVGIFVAGIQEGTSAEQEGLQEGDQILKVNTQDFRGLVREDAVLYLLEIPKGEMVTILAQSRADVYRDILACGRGDSFFIRSHFECEKETPQSLAFTRGEVFRVVDTLYDGKLGNWLAVRIGNELEKGLIPNKSRAEQMASVQNAQRDNAGDRADFWRMRGQRSGVKKNLRKSREDLTAVVSVSTKFPAYERVLLREAGFKRPVVLFGPIADIAMEKLANELPDWFQTAKTEPKDAGSEKSTGVVRLNTVRQIIEQDKHALLDVTPKAVDLLNYTQWFPIVIFFNPDSRQGVKTMRQRLNPTSNKSSRKLFDQANKLKKTCAHLFTATINLNSANDSWFGSLKDTIQHQQGEAVWVSEGKMEGMDDDPEDRMSYLTAMGADYLSCDSRLISDFEDTDGEGGAYTDNELDEPAEEPLVSSITRSSEPVQHEESIRKPSPEPRAQMRRAASSDQLRDNSPPPAFKPEPPKAKTQNKEESYDFSKSYEYKSNPSAVAGNETPGASTKGYPPPVAAKPTFGRSILKPSTPIPPQEGEEVGESSEEQDNAPKSVLGKVKIFEKMDHKARLQRMQELQEAQNARIEIAQKHPDIYAVPIKTHKPDPGTPQHTSSRPPEPQKAPSRPYQDTRGSYGSDAEEEEYRQQLSEHSKRGYYGQSARYRDTEL
As to B1, the binding entry in test [3] and in test [4] was “binds” throughout.
